The test addresses T1, 3Flag-Aurora B^AUK1 (Trypanosoma brucei) (UniProt Q384J7).
T1 sequence: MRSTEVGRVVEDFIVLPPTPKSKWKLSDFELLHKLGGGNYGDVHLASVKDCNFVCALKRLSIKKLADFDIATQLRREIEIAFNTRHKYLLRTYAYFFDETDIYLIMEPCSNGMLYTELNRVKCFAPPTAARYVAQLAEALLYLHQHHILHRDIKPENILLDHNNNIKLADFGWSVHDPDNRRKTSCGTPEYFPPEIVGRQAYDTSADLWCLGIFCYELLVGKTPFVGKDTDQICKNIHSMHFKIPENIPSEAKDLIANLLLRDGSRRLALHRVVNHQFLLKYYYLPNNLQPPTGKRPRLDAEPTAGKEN
Nature of the test: co-purification of a co-expressed complex; 3Flag-Aurora B^AUK1 (wild type or K58R) and INCENP^CPC1 co-expressed in Sf9 cells from one bacmid and purified as a complex (protocol of Llauró et al., 2018).

Results are given in words; binding and its absence hold for the method and conditions named. Some binding calls cover weakened binding; strength is not graded here. Where a sequence is shown, tags or fusion partners need not be part of it.

B1: INCENP^CPC1 (protein, UniProt Q586F4 1-263)
chain: MSNPWNAKLVEELLFRQYEKGEDVSMLLPPPPALSVDQYLKEYEQSTKVLFAYVRNGPANALTPQNINNPRMYGGTPTKGSSSMQRTGNQGGATCATTSSSSACGVDSKAQMQRHPRGLDGSQSAAPSLPLTAGDAAAGQGSMAPPEHIRKRIEWPATVPTNSALKSNSRSRVANLTTKRVAAQERVDPDLIFMQNPEELPLHTIFAKYPKAVESIAALRGGSGDWREDTFTEEEEILYKRELRYSHMGPSQCGFFRSNLIQR
For B1, the binding result is reported as “binds”.

(Values after doi:10.1101/2024.01.20.576407.)
